Experimental data taken from patent US20090202980A1.
No constants are given. Whether binding was seen depends on the method and setting. For some of these results: In cells and extracts the contact can be indirect. Some entries that bind do so weakly or less than the wild type. Where a sequence is shown, tags or fusion partners need not be part of it.

Experiments:
[1] = molecular target: T1, amyloid fragment of transthyretin (TTR11); experiment: ELISA, immobilized peptide
T1 sequence (peptide): YTIAALLSPYS

[2] = molecular target: T2, fibrin peptide 85 (FP13), human fibrin α-chain fragment α148-160 (human); experiment: ELISA, immobilized peptide
T2 sequence (peptide): KRLEVDIDIKIRS

[3] = molecular target: human amyloid-β peptide Aβ(1-40) (human); experiment: ELISA, immobilized peptide
[4] = molecular target: T3, laminin α1-chain(2097-2108) amyloid core peptide (LAM12); experiment: ELISA, immobilized peptide
T3 sequence (peptide): AASIKVAVSADR

[5] = molecular target: human amyloid-β peptide Aβ(1-40) (human); experiment: pull-down with Aβ fibrils, Western blot
[6] = molecular target: human islet amyloid polypeptide, full length (fl-hIAPP) (human); experiment: pull-down with IAPP fibrils, Western blot

Measured: binding

GAEKCFEPQLLRFFHKNEIWYRTEQAAVARCQCKGPDAHCQRL (peptide, not shown: small tags and cut ends; a dimerising Fc or GST) [FXII F-GST (finger domain of human factor XII with C-terminal GST tag)]
binds: all assays above

SYQVICRDEKTQMIYQQHQSWLRPVLRSNRVEYCWCNSGRAQCHSVPVKS (peptide, UniProt P00750 36-85, looked up, not shown: a dimerising Fc or GST) [tPA-F-GST (finger domain of human tPA with C-terminal GST tag)]
binds: [6]
